Literature values, collected in patent US20010056086A1, “USE OF ANTI-OESTROGENS AS MALE CONTRACEPTIVES” (priority 1995, published 2001).
At least one compound was matched to its structure with a doubt left.

System: male bonnet monkeys
Conditions: cited from earlier work

In the case of CC#C[C@]1(O)CC[C@H]2[C@@H]3CCC4=CC(=O)CCC4=C3[C@@H](c3ccc(N(C)C)cc3)C[C@@]21C [RU 486, 11β-[(4-N,N-dimethylamino)-phenyl]-17β-hydroxy-17α-propinyl-4,9(10)-estradien-3-one], the acrosomes of sperm is listed as “loss/inhibition of acrosomes”, the ejaculation weight is listed as “reduction of ejaculation weight” and the “sperm count per ejaculation” value is listed as “reduction”. For the same compound, the sperm mobility was “reduction in sperm mobility” and the sperm morphology was “morphologic anomalities of sperm”.
